Some of the results follow.
Each target was assayed with CN1CCc2c(c3ccccc3n2Cc2ccc(C(=O)NO)cc2)C1 [Tubastatin A] (assay: log2 fold change, soluble protein after heating vs DMSO (PISA); higher = thermal stabilisation; K562 lysate, 10 uM; active = over 0.2 and 3.5 SD of the protein, either way, in both replicates (recomputed)).
In short: (§1)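 Soluble protein was defined as the supernatant remaining after 21,000xg for 90 min, following pooling of heated aliquots and adjustment to 0.5% NP-40 at 4°C. Before that, crude K562 extract at 1 mg/mL protein in PBS pH 7.4 with 1 mM MgCl2 was treated with 10 μM compound for 30 min and heated for 3 min across 48°C-58°C. Quantification used TMTpro 16plex LC-MS/MS with channel sums equalised, and values are log-two fold changes in thermal stability relative to solvent controls from duplicates.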

Sequences of proteins named here, by UniProt entry; tags and fusion partners are left off. A change or cut given only in a name is not applied to a line headed by its entry.
UniProt Q9BTF0: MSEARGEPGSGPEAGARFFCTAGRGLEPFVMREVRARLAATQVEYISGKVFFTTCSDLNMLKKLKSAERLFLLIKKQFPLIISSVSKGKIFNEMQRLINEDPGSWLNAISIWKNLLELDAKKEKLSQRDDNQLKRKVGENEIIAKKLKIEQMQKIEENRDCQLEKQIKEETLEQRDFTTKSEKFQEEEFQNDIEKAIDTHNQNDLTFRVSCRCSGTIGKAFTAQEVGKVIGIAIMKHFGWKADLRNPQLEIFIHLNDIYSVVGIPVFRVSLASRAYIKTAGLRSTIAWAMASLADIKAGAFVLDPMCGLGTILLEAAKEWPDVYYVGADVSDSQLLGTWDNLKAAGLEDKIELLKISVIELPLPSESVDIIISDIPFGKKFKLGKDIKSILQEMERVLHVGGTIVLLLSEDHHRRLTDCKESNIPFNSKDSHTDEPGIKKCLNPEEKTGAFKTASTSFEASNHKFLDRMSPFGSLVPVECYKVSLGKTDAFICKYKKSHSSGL
UniProt Q9UM00: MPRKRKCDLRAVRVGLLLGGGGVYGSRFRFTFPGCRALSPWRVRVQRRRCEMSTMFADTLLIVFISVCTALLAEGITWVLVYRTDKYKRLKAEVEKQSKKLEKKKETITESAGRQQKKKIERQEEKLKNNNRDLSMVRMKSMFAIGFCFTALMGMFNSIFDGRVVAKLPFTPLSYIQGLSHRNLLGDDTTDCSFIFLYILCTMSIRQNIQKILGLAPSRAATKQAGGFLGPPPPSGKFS
UniProt Q9BXJ8: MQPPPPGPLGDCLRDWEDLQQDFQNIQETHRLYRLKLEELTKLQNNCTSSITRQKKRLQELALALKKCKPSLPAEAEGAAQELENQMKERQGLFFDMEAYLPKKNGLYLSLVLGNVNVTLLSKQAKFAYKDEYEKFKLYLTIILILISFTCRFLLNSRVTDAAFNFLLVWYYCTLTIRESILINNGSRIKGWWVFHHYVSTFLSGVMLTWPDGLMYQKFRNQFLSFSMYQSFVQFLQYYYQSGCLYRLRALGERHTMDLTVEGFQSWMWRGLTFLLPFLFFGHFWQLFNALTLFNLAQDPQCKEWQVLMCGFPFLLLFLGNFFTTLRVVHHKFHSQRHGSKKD
UniProt O14925: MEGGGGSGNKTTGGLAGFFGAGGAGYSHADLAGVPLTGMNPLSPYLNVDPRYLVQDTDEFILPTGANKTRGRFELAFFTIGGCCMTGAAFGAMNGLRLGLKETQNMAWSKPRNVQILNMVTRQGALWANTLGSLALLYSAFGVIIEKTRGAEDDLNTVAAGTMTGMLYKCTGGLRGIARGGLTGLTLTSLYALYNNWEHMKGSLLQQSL
UniProt Q9UDY2: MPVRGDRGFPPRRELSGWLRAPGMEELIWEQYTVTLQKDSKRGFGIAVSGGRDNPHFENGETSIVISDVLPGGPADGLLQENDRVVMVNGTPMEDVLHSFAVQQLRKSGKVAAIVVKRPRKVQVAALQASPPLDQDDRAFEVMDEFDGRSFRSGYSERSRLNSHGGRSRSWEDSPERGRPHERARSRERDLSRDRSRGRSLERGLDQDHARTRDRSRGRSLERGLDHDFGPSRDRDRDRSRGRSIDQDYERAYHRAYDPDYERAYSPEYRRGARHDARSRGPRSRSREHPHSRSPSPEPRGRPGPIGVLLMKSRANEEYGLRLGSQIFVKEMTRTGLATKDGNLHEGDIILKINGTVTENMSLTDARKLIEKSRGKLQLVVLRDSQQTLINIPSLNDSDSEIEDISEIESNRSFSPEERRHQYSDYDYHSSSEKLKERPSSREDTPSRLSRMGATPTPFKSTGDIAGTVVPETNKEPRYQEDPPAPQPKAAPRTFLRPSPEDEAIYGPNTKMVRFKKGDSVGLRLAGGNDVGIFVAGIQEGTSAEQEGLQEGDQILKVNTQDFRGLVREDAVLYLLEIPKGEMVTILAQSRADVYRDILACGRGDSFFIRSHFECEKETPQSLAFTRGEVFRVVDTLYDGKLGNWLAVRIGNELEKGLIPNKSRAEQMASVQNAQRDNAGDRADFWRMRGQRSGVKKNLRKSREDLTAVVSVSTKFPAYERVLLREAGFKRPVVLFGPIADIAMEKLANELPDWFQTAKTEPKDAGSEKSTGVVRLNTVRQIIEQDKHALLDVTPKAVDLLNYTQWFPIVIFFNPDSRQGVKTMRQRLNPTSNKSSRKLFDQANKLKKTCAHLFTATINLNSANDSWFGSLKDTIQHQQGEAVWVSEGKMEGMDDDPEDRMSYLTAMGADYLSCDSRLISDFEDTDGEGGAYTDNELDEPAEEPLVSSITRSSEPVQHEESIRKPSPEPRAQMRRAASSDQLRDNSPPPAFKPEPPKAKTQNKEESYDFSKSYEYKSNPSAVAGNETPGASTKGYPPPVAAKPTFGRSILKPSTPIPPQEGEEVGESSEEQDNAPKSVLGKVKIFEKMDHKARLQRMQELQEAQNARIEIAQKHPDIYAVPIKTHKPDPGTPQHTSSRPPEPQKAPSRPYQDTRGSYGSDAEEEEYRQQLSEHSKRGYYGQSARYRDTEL
UniProt Q5U3C3: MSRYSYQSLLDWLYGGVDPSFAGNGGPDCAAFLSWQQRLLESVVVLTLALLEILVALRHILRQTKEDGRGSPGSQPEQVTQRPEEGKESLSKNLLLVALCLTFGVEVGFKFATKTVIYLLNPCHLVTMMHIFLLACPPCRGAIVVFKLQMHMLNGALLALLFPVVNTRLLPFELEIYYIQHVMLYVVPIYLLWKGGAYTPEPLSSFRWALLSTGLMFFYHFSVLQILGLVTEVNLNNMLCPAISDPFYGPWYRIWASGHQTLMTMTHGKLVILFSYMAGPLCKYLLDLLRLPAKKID
UniProt Q8IYQ7: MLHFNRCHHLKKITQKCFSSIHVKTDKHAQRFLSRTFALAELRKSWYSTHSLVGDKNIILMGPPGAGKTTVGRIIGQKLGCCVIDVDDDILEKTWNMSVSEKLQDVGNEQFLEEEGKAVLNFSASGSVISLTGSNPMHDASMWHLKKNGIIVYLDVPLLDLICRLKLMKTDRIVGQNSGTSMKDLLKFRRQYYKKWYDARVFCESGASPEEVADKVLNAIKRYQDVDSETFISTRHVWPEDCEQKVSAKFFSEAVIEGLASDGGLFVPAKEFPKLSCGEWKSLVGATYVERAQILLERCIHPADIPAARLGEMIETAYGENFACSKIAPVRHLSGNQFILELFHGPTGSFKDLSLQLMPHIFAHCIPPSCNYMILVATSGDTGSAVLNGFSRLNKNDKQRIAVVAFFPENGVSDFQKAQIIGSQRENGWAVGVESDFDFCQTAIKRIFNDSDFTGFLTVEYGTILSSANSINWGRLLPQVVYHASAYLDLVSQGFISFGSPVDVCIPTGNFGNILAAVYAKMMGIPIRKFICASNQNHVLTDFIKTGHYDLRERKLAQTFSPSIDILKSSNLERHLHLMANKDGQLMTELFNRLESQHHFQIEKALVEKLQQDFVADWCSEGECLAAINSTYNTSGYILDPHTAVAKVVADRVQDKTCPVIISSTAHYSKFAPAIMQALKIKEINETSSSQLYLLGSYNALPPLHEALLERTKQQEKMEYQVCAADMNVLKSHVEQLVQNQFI
UniProt Q96FV9: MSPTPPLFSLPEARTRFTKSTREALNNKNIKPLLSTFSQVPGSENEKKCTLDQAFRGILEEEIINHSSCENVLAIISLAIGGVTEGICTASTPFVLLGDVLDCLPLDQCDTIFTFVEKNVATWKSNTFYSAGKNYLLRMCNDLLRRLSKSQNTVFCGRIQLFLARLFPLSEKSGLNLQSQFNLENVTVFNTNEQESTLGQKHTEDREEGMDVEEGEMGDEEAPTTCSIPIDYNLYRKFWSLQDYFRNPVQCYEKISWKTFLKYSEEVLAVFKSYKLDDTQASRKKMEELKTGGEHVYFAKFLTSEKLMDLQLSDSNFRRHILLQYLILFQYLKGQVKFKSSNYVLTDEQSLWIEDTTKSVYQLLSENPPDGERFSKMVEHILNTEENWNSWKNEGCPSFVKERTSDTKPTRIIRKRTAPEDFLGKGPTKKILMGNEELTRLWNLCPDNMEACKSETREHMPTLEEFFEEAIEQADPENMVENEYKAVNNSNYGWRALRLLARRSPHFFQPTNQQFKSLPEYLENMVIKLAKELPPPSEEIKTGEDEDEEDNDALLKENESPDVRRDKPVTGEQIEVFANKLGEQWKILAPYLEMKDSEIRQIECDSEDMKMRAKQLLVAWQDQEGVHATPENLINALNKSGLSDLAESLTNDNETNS
UniProt Q96RS0: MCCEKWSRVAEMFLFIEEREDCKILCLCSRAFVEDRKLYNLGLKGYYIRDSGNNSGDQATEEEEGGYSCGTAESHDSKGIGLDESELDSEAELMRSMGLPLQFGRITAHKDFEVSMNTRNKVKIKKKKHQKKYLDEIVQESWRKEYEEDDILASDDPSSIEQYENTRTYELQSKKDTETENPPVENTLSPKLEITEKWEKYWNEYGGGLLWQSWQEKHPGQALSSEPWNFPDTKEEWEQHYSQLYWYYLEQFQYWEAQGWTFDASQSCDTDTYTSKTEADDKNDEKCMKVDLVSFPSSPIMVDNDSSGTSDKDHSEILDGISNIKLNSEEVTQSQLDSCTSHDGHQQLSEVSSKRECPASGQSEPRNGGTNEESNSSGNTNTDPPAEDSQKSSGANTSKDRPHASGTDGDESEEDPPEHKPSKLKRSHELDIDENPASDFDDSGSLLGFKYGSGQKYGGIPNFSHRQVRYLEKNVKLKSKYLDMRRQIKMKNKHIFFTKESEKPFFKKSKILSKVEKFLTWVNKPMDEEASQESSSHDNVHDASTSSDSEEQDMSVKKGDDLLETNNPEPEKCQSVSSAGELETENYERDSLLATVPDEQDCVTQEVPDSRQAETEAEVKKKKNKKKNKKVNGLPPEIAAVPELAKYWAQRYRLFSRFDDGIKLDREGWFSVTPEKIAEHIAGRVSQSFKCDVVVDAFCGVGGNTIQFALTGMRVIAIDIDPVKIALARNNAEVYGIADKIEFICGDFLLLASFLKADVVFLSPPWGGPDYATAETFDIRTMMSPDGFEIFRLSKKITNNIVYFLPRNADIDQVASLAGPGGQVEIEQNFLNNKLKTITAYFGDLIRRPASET
UniProt O43615: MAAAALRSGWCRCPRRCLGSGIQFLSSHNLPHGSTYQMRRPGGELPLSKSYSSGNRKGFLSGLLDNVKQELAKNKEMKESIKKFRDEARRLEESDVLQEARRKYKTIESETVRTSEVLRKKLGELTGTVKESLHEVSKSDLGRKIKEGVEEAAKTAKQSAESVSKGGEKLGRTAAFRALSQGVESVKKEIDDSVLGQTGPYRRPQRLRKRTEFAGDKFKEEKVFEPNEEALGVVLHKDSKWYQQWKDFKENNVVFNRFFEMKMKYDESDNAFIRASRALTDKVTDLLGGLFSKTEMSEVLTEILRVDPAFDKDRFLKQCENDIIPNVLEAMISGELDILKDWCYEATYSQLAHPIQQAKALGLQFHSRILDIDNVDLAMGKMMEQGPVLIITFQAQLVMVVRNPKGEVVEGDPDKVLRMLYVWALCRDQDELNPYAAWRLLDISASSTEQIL
UniProt Q5T1C6: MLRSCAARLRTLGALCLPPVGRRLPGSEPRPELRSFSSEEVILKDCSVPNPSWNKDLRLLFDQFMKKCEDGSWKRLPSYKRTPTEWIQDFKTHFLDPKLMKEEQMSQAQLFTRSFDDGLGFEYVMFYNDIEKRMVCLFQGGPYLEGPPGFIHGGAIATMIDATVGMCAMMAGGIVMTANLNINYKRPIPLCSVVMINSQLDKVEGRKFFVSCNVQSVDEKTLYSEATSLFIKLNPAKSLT
UniProt O60830: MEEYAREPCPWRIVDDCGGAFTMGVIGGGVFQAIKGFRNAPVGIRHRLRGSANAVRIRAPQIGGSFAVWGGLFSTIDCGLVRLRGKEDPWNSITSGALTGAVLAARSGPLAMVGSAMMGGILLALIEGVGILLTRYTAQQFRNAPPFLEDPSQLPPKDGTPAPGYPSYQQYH
UniProt Q6PL24: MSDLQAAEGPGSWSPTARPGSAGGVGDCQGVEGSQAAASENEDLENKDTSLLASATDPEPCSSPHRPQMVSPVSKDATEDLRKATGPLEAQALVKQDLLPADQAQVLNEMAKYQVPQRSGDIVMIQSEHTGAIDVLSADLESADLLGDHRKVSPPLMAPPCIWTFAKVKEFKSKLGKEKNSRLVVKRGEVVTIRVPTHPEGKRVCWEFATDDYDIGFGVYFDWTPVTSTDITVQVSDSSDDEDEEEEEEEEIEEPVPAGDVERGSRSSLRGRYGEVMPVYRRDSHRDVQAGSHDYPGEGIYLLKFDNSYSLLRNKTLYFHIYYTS
UniProt Q01085: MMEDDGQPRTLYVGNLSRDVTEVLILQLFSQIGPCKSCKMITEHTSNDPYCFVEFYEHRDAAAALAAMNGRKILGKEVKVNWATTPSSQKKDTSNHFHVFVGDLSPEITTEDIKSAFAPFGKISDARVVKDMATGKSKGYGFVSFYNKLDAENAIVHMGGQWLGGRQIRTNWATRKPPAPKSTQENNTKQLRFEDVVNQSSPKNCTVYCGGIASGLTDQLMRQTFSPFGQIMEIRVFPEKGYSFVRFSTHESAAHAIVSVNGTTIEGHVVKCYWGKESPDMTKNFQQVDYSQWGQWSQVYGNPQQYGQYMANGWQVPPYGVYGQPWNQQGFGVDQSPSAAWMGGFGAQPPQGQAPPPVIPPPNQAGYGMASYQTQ

log2 fold change, inactive:
TICAM2 isoform 2 (UniProt Q86XR7) 0.007
THUMPD2 (UniProt Q9BTF0) 0.011
TMCO1 (UniProt Q9UM00) 0.016
TGOLN2 isoform 7 (UniProt O43493) 0.003
TMBIM1 (UniProt Q969X1) 0.021
TMEM120A (UniProt Q9BXJ8) 0.041
TIMMDC1 (UniProt Q9NPL8) 0.036
TIMM23 (UniProt O14925) 0.017
TJP2 isoform 7 (UniProt Q9UDY2) -0.014
TMEM185B (UniProt Q9H7F4) 0.184
TM9SF4 (UniProt Q92544) 0.025
TMEM168 (UniProt Q9H0V1) -0.02
TMEM164 (UniProt Q5U3C3) 0.05
THYN1 (UniProt Q9P016) -0.015
THNSL1 (UniProt Q8IYQ7) 0.009
TMBIM6 isoform 2 (UniProt P55061) -0.006
THOP1 (UniProt P52888) 0.021
TMCO6 isoform 2 (UniProt Q96DC7) -0.079
TMEM109 (UniProt Q9BVC6) 0.054
THOC5 (UniProt Q13769) -0.025
THOC1 (UniProt Q96FV9) -0.056
TLE4 isoform 3 (UniProt Q04727) -0.019
TGS1 (UniProt Q96RS0) -0.071
TIMM29 (UniProt Q9BSF4) 0.094
TLN2 (UniProt Q9Y4G6) 0.002
TMEM126A (UniProt Q9H061) 0.073
TMED5 (UniProt Q9Y3A6) 0.031
TMA7 (UniProt Q9Y2S6) 0.083
TIMM22 (UniProt Q9Y584) 0.072
TMEM161A (UniProt Q9NX61) -0.093
TIMM44 (UniProt O43615) 0.083
THEM4 (UniProt Q5T1C6) 0.032
TMED10 (UniProt P49755) 0.028
TMA16 (UniProt Q96EY4) -0.093
TIPRL (UniProt O75663) 0.006
TIMM17A (UniProt Q99595) 0.052
TIMM17B (UniProt O60830) -0.011
TIMM50 isoform 2 (UniProt Q3ZCQ8) 0.011
TMED8 (UniProt Q6PL24) -0.138
TIAL1 isoform 2 (UniProt Q01085) 0.05

What follows are targets tested with CNC(=O)C1=CC=CC=C1NC2=NC(=NC=C2Cl)NC3=C(C=C(C=C3)N4CCOCC4)OC in the same assay as above.
In short: as §1

log2 fold change, inactive:
TICAM2 isoform 2 (UniProt Q86XR7) -0.006
THUMPD2 (UniProt Q9BTF0) -0.012
TMCO1 (UniProt Q9UM00) 0.002
TGOLN2 isoform 7 (UniProt O43493) -0.052
TMBIM1 (UniProt Q969X1) -0.003
TMEM120A (UniProt Q9BXJ8) 0.032
TIMMDC1 (UniProt Q9NPL8) 0.085
TIMM23 (UniProt O14925) 0.067
TJP2 isoform 7 (UniProt Q9UDY2) -0.021
TMEM185B (UniProt Q9H7F4) 0.046
TM9SF4 (UniProt Q92544) -0.016
TMEM168 (UniProt Q9H0V1) -0.011
TMEM164 (UniProt Q5U3C3) -0.039
THYN1 (UniProt Q9P016) -0.001
THNSL1 (UniProt Q8IYQ7) -0.129
TMBIM6 isoform 2 (UniProt P55061) -0.004
THOP1 (UniProt P52888) -0.009
TMCO6 isoform 2 (UniProt Q96DC7) 0.04
TMEM109 (UniProt Q9BVC6) 0.002
THOC5 (UniProt Q13769) -0.021
THOC1 (UniProt Q96FV9) -0.009
TLE4 isoform 3 (UniProt Q04727) 0.007
TGS1 (UniProt Q96RS0) 0.019
TIMM29 (UniProt Q9BSF4) 0.038
TLN2 (UniProt Q9Y4G6) 0
TMEM126A (UniProt Q9H061) 0.101
TMED5 (UniProt Q9Y3A6) -0.033
TMA7 (UniProt Q9Y2S6) 0.018
TIMM22 (UniProt Q9Y584) 0.027
TMEM161A (UniProt Q9NX61) 0.061
TIMM44 (UniProt O43615) 0.039
THEM4 (UniProt Q5T1C6) 0.008
TMED10 (UniProt P49755) -0.006
TMA16 (UniProt Q96EY4) -0.002
TIPRL (UniProt O75663) -0.021
TIMM17A (UniProt Q99595) -0.081
TIMM17B (UniProt O60830) -0.01
TIMM50 isoform 2 (UniProt Q3ZCQ8) -0.024
TMED8 (UniProt Q6PL24) 0.073
TIAL1 isoform 2 (UniProt Q01085) -0.015

Source: the supplement of paper PMC10849652
